These are yes or no findings as the source states them, for the method shown. Binding seen in cells or lysates may run through a third protein. Here binding means that the protein was enriched with, or labelled near, the bait; the list need not be complete. For some assays here: A no says only that the protein was not detected with the bait. For some assays here: Where a sequence is shown, tags or fusion partners need not be part of it.
B1: DnaJ (DVU3243) (protein, UniProt Q725M6 1-376)
chain: MSQRDYYEVLGVARDASEDDIKRAYRKLALQYHPDRNPDDPEAEQKFKEAAEAYDVLRDGEKRARYDRFGHAGVGNGGGFGQGFSSNEDIFAHFSDIFGDLFGFAGAAGGRSRGPRPQAGSDLRYNLTISFRQAAKGDEVTLRLPKSVPCDECGGSGAAPGTRPETCRHCGGAGQIRQSQGFFQIAMPCPVCRGEGTVITSPCPKCKGSGQTQQVKELSVRIPAGVDTGNRLRLRGEGEPGIHGGPAGDLYVVISVEDDKTFRRQGQDLVVTREISFVQASLGDRIDVPTLDDDITLDIPAGTQSGEVFRLVDKGLPYLGHGHTGDLLVEIRVVTPTRLTKKQEELLREFALLDEEKPLEKVKKMARKIGKAMGMD
B2: ribosomal protein L7/L12 (DVU2927) (protein, UniProt Q727C8 1-127)
chain: MSITKEQVVEFIGNMTVLELSEFIKELEEKFGVSAAAPMAAMAVAAPAGDAAPAEEEKTEFDIILKSAGANKIGVIKVVRALTGLGLKEAKDKVDGAPSTLKEAASKEEAEEAKKQLVEAGAEVEIK
B3: carbon monoxide dehydrogenase, CooS (DVU2098) (enzyme, UniProt Q72A99 1-629)
chain: MSSSKTIRSRSIWDDAHAMLEKAKAEGISTVWDRAAEQTPACKFCELGTTCRNCIMGPCRIANRKDGKMRLGVCGADADVIVARNFGRFIAGGAAGHSDHGRDLIETLEAVAEGKAPGYTIRDVAKLRRIAAELGVADAATRPAHDVAADLVTICYNDFGSRRNALAFLARAPQVRRDLWQRLGMTPRGVDREIAEMMHRTHMGCDNDHTSLLVHAARTALADGWGGSMIGTELSDILFGTPRPRQSTVNLGVLRKDAVNILVHGHNPVVSEMILAATREPAVRQAAQDAGAADINVAGLCCTGNELLMRQGIPMAGNHLMTELAIVTGAADAIVADYQCIMPSLVQIAACYHTRFVTTSPKGRFTGATHVEVHPHNAQERCREIVMLAIDAYTRRDPARVDIPSQPVSIMSGFSNEAILEALGGTPKPLIDAVVAGQIRGFVGIVGCNNPKIRQDSANVTLTRELIRRDIMVLATGCVTTAAGKAGLLVPEAASKAGEGLAAVCRSLGVPPVLHMGSCVDNSRILQLCALLATTLGVDISDLPVGASSPEWYSEKAAAIAMYAVASGIPTHLGLPPNILGSENVTAMALHGLQDVVGAAFMVEPDPVKAADMLEAHIVARRARLGLTS
B4: S-adenosylmethionine synthetase (MetK, DVU2449) (enzyme, UniProt Q729A3 1-391)
chain: MIPSKGKYYFTSESVTEGHPDKVADQISDAVLDVLLAQDPNSRVACETLVTTGMAVIAGEITTRGYADLPHVVRETIRNIGYNSSEMGFDWQTCAVISSIDKQSADIAQGVDRATNEDQGAGDQGMMFGFACDETATLMPAPIYWAHQLSQRLTEVRKDGTVDIFRPDGKTQVSFEYVDGKPVRINNVVVSTQHKDSASQADIIDAVKTHVIRPILEPSGFFDEKACDIFINTTGRFVIGGPMGDCGLTGRKIIQDTYGGMGHHGGGAFSGKDASKVDRSGAYMARYIAKNVVASGLAPKCEVQIAYCIGVAEPVSVLVSSQGTASVPDEVLTRAVREVFDLRPFHITRRLDLLRPIYGKTSCYGHFGRELPEFTWEHTDAAADLRTAAKV
B5: HslU (DVU1467) (protein, UniProt Q72C17 1-441)
chain: MSTLTPREIVSELDRFVVGQEKAKRMVAVAMRNRWRRQRLEPSLRDEVAPKNIIMMGPTGVGKTEIARRLARLCGAPFIKVEATKYTEVGYVGRDVESMVRDLMEIGVSLIRDEEATRVRARAEAAAEERLLDLLLPQSPADGGETRQSTRDKLRGLWRQGHLDDREVDMEVEESTKGPQMDIFAMPGMESMGNQFRDLMGKAFPARRKMRKMKLREAWNLLVDEEASRLLDQDKVVDIARERVEQTGIIFIDELDKVASGEGTHRTTDISREGVQRDLLPIVEGSVVNTKYGMVRTDHILFIAAGAFHFSKPSDLIPELQGRFPLRVELDPLGRDEFYRILTEPHNALTRQYAALLATEGVTVSFTDDGLREIAAFAEEVNEETENIGARRLYTMMERILADISFDAPDRPGEHVTVDAAYVRTHLEDVRVDKDLSRYIL
B6: adenosylhomocysteinase (AhcY, DVU0607) (enzyme, UniProt Q72EH1 1-479)
chain: MTDAKRAQKLDLSLDHKVADMSLADYGRKDLQLSEREMPGLMELIRKYGGTKPLKGLKVTGSLHMTIQTAMLIRTLYELGADIRWASCNIFSTQDHAAAAIAASGMAKVFAWKGETLEDYWWCTEMALTWPDGSGPDLLVDDGGDATLFIHKGVEVENDPSLLKKAYDNKEFQIIMDRLALAYEQDPGRWQRVAAKVRGVSEETTTGVHRLYQLEQEGKLLFPAINVNDAVTKSKFDNLYGCRESLADGIKRATDVMVAGKVVVVAGYGDVGKGCAQSMRGFGARVLVTEIDPICALQAAMEGYEVTTMEEAVRTGDIFVTATGNCNVITGAHMEAMKDEAIVCNIGHFDNEIDMHYLENTEGCVCLNIKPQVDKWTLRSGRSIIVLAEGRLVNLGCATGHPSFVMSASFTNQTLAQIELATNPDLERKVYTLPKKLDEEVARLHLDRLGVKLTRLSKDQADYIGVSPEGPFKPDHYRY
B7: DsrC (DVU2776) (protein, UniProt P45573 1-105)
chain: MAEVTYKGKSFEVDEDGFLLRFDDWCPEWVEYVKESEGISDISPDHQKIIDFLQDYYKKNGIAPMVRILSKNTGFKLKEVYELFPSGPGKGACKMAGLPKPTGCV
B8: Eno (DVU0322) (enzyme, UniProt Q72F92 1-437)
chain: MSTIVSVWAREILDSRGNPTIEVEVSLESGHSGRAAVPSGASTGTREALELRDGDKGRYKGKGVEKAVDNVMGEIAEAVIGLDALRQVQLDNTLLDLDGTDNKERLGANAMLGVSLATARAASSFLGLPLYQYLGGVNAKVLPVPLMNIINGGAHAPNNLDIQEFMIMPIGAATFRDALRMGAETFHTLKALLAADGHVTSVGDEGGFAPNLKSHDEAFKYITRAIEESGYIPGAEIALAIDAAASEFYRDGKYHLAGEGKTFSNSEMTEWLGEFTAKYPLISIEDGLAEGDWEGWGELTYKLGDTVQLVGDDIFVTNPDILAQGIDEGVANSILIKLNQIGTLTETLDTIEMAKQAAYTTVISHRSGETEDHFIADLAVGLNAGQIKTGSLCRSDRLAKYNQLLRIEEDLDDAGIYFGPMIASHFGYEGDEEFEDA
B9: desulfoferrodoxin (Sor/Rbo, DVU3183) (enzyme, UniProt P20418 1-126)
chain: MPNQYEIYKCIHCGNIVEVLHAGGGDLVCCGEPMKLMKEGTSDGAKEKHVPVIEKTANGYKVTVGSVAHPMEEKHWIEWIELVADGVSYKKFLKPGDAPEAEFCIKADKVVAREYCNLHGHWKAEA

Amino acid sequences for entries named in this document (tags omitted). A change or cut given only in a name is not applied to a line headed by its entry.
UniProt Q72DW8: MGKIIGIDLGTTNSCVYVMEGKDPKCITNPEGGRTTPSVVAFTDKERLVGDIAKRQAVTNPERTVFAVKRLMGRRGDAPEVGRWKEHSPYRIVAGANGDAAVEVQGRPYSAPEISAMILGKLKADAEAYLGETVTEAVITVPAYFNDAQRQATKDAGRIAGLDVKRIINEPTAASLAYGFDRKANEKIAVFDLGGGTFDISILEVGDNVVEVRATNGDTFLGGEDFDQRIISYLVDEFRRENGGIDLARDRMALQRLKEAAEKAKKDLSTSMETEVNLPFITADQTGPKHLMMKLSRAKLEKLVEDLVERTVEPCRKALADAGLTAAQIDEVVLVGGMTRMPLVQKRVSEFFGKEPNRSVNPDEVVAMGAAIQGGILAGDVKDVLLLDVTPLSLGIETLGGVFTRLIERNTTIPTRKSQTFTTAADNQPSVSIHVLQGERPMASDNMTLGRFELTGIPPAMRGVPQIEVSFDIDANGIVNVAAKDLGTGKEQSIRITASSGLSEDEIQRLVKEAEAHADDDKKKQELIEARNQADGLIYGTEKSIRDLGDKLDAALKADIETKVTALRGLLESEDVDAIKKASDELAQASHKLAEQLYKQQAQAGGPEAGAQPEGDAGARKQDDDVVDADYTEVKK
UniProt Q72DT2: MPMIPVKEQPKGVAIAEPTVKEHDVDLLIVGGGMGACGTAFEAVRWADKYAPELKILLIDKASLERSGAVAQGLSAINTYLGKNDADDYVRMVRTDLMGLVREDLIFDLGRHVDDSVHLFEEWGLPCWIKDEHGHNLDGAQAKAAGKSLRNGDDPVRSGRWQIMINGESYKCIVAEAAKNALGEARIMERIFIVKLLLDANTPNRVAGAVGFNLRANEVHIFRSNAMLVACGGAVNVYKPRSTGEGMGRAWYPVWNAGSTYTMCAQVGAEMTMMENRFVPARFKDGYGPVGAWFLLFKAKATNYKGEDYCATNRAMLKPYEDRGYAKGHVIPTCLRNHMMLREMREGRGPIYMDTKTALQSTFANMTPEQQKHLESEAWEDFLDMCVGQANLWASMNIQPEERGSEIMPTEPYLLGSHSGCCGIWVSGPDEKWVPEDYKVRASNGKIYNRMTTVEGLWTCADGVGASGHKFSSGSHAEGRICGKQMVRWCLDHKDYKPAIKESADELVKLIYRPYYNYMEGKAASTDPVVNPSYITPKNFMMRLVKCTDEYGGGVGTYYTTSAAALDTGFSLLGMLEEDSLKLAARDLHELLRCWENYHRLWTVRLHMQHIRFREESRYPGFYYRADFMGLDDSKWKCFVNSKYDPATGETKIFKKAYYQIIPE
UniProt Q729Q8: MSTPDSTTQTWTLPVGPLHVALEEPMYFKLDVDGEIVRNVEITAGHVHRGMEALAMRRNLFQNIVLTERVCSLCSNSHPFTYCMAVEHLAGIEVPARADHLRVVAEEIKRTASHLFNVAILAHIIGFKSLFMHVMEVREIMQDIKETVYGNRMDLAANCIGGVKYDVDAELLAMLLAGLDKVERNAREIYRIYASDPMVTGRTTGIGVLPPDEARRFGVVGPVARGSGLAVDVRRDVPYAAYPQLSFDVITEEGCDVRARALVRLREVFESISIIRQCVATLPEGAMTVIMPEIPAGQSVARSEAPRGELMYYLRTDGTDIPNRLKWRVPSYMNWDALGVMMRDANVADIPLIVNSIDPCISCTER
UniProt Q726B7: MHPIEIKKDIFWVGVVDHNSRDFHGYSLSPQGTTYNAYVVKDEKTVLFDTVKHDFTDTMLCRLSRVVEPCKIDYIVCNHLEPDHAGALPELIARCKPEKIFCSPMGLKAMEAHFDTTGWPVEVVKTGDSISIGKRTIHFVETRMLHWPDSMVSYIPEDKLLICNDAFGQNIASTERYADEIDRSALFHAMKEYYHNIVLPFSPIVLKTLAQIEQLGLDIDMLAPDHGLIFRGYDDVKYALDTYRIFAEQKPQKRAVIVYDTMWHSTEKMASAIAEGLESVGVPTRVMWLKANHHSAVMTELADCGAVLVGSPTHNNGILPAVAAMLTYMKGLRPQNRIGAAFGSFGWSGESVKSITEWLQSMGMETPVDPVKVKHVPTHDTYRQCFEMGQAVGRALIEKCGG

Assays:
Experiment in all cases: affinity purification with mass spectrometry; chromosomally C-terminally Strep-tag II-tagged bait in D. vulgaris JW801 grown anaerobically in LS4D to late log phase; soluble lysate (60~70 mg protein) on a 1-ml Strep-Tactin Sepharose column, gravity flow, 4°C, Buffer W (100 mM Tris-HCl, 150 mM NaCl, 1 mM EDTA, pH 8), eluted with desthiobiotin; tryptic digest, LC-MS/MS; three biological replicates; untagged JW801 as no-bait control
[1] = target: Strep-tagged DnaK (DVU0811) (Desulfovibrio vulgaris Hildenborough (strain JW801)) (UniProt Q72DW8)
[2] = target: Strep-tagged ApsA (DVU0847) (Desulfovibrio vulgaris Hildenborough (strain JW801)) (UniProt Q72DT2)
[3] = target: Strep-tagged carbon monoxide-induced hydrogenase CooH (DVU2291) (Desulfovibrio vulgaris Hildenborough (strain JW801)) (UniProt Q729Q8)
[4] = target: T1, Strep-tagged HslV (DVU1577) (Desulfovibrio vulgaris Hildenborough (strain JW801)) (UniProt Q72BQ7)
T1 sequence: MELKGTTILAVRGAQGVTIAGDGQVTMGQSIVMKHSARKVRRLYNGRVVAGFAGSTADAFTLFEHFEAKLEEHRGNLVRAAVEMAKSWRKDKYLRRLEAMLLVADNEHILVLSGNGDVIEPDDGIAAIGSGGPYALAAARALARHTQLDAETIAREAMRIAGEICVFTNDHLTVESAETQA

[5] = target: Strep-tagged Rubredoxin-oxygen oxidoreductase, Roo (DVU3185) (Desulfovibrio vulgaris Hildenborough (strain JW801)) (UniProt Q726B7)
[6] = target: T2, Strep-tagged Polyribonucleotide nucleotidyltransferase (Pnp, DVU0503) (Desulfovibrio vulgaris Hildenborough (strain JW801)) (UniProt Q72ER6)
T2 sequence: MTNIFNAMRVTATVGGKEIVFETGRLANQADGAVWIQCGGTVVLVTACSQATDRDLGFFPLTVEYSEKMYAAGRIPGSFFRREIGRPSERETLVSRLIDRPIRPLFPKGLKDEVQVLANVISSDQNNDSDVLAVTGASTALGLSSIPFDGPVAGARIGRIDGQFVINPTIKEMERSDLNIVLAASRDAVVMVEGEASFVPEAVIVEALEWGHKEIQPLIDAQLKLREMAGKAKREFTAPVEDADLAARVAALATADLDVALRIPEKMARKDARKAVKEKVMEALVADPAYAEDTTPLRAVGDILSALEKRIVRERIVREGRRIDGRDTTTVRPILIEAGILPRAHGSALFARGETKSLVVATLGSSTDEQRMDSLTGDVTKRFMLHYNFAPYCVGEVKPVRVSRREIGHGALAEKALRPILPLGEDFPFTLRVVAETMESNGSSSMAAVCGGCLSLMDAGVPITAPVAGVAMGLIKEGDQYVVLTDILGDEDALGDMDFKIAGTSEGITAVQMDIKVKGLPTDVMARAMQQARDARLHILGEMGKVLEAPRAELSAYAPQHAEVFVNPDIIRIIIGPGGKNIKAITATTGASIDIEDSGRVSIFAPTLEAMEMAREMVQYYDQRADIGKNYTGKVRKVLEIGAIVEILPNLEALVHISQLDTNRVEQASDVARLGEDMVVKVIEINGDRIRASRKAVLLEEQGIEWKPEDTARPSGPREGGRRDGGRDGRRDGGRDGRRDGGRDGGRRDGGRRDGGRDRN

[7] = target: Strep-tagged Ftn (Desulfovibrio vulgaris Hildenborough (strain JW801))

Binder | binding [2] | binding [3] | also measured
B1 |  |  | binding [1]: binds
B2 | binds |  | 
B3 |  | no binding | 
B4 | binds |  | 
B5 |  |  | binding [4]: no binding
B6 | binds |  | 
B7 | binds | binds | binding [5]: binds
B8 |  |  | binding [6]: no binding
B9 | binds | binds | binding [5]: binds; binding [7]: binds
